Binding data for ten molecules are collected here from article PMC7948738.

Chains of the proteins cited; added tags and fusions are not shown. Residues count along the entry.
UniProt P26450: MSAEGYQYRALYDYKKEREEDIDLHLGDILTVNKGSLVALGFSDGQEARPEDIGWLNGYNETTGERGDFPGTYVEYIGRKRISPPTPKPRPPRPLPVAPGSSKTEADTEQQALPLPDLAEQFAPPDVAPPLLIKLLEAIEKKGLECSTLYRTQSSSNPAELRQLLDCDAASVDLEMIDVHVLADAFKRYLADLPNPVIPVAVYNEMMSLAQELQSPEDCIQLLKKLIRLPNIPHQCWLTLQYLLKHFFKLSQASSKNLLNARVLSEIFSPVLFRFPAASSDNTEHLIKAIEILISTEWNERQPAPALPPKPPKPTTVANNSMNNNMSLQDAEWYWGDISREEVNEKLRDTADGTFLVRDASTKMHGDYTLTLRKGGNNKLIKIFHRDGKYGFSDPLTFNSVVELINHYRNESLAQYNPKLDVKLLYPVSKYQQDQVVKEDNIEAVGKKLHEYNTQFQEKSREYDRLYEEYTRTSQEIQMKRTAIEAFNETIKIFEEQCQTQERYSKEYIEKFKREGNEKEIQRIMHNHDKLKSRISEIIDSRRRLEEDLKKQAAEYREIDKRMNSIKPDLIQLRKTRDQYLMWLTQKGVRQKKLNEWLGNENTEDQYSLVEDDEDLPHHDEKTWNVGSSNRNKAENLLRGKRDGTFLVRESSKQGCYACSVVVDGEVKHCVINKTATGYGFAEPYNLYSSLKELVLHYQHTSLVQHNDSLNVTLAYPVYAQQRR
UniProt P62259: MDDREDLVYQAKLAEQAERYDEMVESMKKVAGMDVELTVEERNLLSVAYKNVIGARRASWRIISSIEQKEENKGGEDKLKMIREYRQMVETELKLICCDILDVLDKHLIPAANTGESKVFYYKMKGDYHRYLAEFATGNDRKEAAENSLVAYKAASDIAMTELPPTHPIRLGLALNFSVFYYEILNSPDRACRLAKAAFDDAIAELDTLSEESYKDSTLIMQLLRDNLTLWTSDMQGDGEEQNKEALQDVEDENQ
UniProt P63101: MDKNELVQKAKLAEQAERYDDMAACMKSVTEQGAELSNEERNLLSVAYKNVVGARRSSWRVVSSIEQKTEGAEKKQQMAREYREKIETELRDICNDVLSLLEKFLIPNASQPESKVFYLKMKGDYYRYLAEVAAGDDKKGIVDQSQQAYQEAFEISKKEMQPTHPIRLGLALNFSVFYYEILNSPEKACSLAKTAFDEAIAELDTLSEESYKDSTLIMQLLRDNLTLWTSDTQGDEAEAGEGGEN
UniProt P20029, residues 20-655: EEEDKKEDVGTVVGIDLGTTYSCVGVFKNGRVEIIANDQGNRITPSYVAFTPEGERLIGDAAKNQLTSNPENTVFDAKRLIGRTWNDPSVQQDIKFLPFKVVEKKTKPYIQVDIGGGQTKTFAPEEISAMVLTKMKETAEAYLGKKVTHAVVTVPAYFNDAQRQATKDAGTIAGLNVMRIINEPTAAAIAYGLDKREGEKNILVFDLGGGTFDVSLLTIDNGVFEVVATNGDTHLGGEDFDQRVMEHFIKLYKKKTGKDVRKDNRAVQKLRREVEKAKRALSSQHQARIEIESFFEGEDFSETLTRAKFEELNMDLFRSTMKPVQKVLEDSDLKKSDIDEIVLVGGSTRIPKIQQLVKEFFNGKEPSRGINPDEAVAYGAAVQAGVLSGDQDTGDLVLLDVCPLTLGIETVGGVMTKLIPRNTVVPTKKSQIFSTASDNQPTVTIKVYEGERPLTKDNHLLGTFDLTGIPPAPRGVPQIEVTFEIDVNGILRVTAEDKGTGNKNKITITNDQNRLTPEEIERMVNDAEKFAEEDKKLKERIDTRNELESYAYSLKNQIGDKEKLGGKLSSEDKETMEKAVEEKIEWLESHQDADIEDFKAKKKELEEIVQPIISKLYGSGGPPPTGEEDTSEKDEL
UniProt Q8R550: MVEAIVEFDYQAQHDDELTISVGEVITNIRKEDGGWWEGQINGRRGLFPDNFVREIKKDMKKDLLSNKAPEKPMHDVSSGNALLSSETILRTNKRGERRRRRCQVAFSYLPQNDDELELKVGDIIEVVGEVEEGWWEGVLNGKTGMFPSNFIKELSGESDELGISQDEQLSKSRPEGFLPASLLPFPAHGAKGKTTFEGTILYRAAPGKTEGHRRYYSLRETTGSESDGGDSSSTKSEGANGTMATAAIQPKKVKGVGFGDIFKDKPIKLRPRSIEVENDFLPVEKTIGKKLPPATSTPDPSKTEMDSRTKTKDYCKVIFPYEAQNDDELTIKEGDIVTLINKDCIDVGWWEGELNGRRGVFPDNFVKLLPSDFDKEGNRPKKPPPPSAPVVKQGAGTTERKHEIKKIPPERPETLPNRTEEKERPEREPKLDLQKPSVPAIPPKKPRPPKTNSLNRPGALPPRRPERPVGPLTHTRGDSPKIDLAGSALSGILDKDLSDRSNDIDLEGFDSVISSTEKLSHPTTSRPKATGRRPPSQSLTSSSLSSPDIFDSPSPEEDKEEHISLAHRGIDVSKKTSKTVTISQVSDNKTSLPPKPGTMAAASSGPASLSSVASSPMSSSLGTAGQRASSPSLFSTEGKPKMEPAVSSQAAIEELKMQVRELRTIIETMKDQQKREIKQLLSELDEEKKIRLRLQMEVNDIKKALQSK
UniProt P26618, residues 25-1089: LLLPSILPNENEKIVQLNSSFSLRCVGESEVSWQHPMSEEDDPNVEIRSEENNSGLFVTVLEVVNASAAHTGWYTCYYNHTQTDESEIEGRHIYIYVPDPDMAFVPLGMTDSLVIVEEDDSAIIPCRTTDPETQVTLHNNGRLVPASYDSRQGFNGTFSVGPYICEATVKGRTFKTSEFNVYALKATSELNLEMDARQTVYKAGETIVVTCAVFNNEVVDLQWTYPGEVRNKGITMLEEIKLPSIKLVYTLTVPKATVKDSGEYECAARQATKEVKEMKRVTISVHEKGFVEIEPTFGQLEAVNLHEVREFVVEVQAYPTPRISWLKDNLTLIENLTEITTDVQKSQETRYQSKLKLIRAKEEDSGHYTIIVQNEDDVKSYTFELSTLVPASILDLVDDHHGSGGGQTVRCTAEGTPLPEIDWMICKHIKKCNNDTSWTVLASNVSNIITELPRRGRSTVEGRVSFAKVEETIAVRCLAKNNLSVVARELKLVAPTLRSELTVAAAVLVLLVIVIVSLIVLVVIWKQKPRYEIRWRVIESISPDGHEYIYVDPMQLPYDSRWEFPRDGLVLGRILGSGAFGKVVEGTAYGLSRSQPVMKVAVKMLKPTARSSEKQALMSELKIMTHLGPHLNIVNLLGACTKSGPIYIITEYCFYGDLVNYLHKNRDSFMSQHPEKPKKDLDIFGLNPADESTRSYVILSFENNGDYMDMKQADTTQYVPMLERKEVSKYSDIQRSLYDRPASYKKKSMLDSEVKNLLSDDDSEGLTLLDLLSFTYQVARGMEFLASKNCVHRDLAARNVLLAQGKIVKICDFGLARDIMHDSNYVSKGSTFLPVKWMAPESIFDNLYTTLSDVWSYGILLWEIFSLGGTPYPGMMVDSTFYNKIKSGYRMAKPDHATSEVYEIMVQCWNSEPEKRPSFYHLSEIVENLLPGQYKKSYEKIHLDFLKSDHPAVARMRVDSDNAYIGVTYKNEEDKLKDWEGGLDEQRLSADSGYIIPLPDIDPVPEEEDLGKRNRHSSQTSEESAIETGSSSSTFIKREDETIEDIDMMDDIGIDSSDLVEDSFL
UniProt O08908: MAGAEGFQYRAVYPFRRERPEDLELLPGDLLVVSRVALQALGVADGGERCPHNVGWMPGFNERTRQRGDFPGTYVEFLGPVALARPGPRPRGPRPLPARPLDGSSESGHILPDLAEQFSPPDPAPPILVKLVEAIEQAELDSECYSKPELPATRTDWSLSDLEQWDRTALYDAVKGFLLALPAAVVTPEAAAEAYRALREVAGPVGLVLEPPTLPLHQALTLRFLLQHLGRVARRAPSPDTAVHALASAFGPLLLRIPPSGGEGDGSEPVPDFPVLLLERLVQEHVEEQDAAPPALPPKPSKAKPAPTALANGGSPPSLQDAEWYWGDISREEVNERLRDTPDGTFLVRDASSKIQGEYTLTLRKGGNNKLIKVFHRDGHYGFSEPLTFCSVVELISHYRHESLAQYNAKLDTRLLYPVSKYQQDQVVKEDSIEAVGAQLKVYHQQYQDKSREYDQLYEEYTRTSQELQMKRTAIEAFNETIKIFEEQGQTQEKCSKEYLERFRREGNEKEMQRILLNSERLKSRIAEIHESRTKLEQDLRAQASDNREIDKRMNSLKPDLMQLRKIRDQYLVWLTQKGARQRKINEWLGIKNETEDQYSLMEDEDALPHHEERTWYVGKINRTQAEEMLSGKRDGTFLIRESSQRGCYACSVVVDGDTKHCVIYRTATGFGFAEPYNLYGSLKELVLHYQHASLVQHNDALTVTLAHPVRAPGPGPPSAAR

First the molecules themselves.
B1: Isoform 1 of MKL/myocardin-like protein 1 (protein, UniProt Q8K4J6 1-964)
chain: MTLLEPEMLMMAVQSVLQLKLQQRRTREELVSQGIMPPLKSPAAFHEQRRSLERARTEDYLKRKIRSRPERAELVRMHILEETSAEPSLQAKQLKLKRARLADDLNEKIAQRPGPMELVEKNILPVESSLKEAIIVGQVNYPKVADSSSFDEDSSDALSPEQPASHESQGSVPSPLESRVSDPLPSATSISPTQVLSQLPMAPDPGETLFLAEQPPLPPAPLLPPSLANGSIVPTAKPAPTLIKQSQPKSASEKSQRSKKAKELKPKVKKLKYHQYIPPDQKQDKGAPAMDSSYAKILQQQQLFLQLQILNQQQQQQQQQHYNYQAILPAPPKPSAETPGSSAPTPSRSLSTSSSPSSGTPGPSGLARQSSTALAAKPGALPANLDDMKVAELKQELKLRSLPVSGTKTELIERLRAYQDQVSPAPGAPKAPATTSVLSKAGEVVVAFPAALLSTGSALVTAGLAPAEMVVATVTSNGMVKFGSTGSTPPVSPTPSERSLLSTGDENSTPGDAFGEMVTSPLTQLTLQASPLQIVKEEGARAASCCLSPGARAELEGLDKDQMLQEKDKQIEELTRMLQQKQQLVELLRLQLEQQKRAQQPAPASSPVKRESGFSSCQLSCQPQGSAHAFGSGLVVPTTNHGDTQAPAPESPPVVVKQEAGPPEPDLAPSSQLLLGSQGTSFLKRVSPPTLVTDSTGTHLILTVTNKSADGPGLPAGSPQQPLSQPGSPAPGPPAQMDLEHPPQPPFATPTSLLKKEPPGYEETVTQQPKQQENGSSSQHMDDLFDILIQSGEISADFKEPPSLPGKEKSPPAAAAYGPPLTPQPSPLSELPQAAPPPGSPTLPGRLEDFLESSTGLPLLTSGHEGPEPLSLIDDLHSQMLSSSAILDHPPSPMDTSELHFAPEPSSGMGLDLAVGHLDSMDWLELSSGGPVLSLAPLSTAAPSLFSMDFLDGHDLQLHWDSCL
B2: Isoform 1 of zinc finger CCCH domain–containing protein 14 (protein, UniProt Q8BJ05 1-735)
chain: MEIGTEISRKIRSAIKGKLQELGAYVDEELPDYIMVMVANKKSQDQMTEDLSLFLGNNTIRFTVWLHGVLDKLRSVTTEPSSLKSPDASIFDSHVPSNKSSFSRGDERRHEAAVPPLAVSSSRPEKRDSRVSTSSQEQKSTNVRHSYDDGASTRLMSTVKPLREPAPSEDVIDIKPEPDDLIDEDLNFVQENPLSQKKPTVTLTYGSSRPSIEIYRPPASRNADTGTHLNRLQLHPQQSSAHAAKQLDVQSSQVSEAGRLCEPPVLSSVEDTYSPFFRNNLDKMSIEDENFRKRKLPVVSSVVKVKRFSHDGEEEEEDEDYGTRIGSLSSSVSVPAKPERRPSLPPSKQANKNLILKAISEAQESVTKTTNYSAVPQKQTLPVAPRTRTSQEELLAEMVQGQNRAPRISPPVKEEEAKGDNTGKSQGTQQRQLLSRLQIDPVMVETMEMSQDYYDMESMVHADTRSFILKKPKLSEEIVVTPNQDSGMKTADALRVLSGHLMQTRDLVQPDKPASPKFIVTLDGVPSPPGYMSDQEEEMCFEGMKPVNQTSASNKGLRGLLHPQQLHLLSRQLEDPDGSFSNAEMTDLSVAQKPEKLLERCKYWPACKNGDECVYHHPISPCKAFPNCKFAEKCLFVHPNCKYDTKCTKADCPFTHMSRRASILTPKPVSSPAPSSNGQLCRYFPACKKMECPFYHPKHCRFNTQCTRPDCTFYHPTITVPPRHALKWIRPQSSE
B3: GRB2-associated binding protein 1 (protein, UniProt Q9QYY0 1-695)
chain: MSGGEVVCSGWLRKSPPEKKLKRYAWKRRWFVLRSGRLTGDPDVLEYYKNDHAKKPIRIIDLNLCQQVDAGLTFNKKEFENSYIFDINTIDRIFYLVADSEEDMNKWVRCICDICGFNPTEEDPVKPLTGSSQAPVDSPFAISTAPASSQMEASSVALPPPYQVISLPPHPDTLGLQDDPQDYLLLINCQSKKPEPNRTLFDSAKPTFSETDCNDNVPSHQTPASSQSKHGMNGFFQQQMMYDCPPSRLTSVSGESSLYNLPRSYSHDVLPKESPSSTEADGELYTFNTPSGTAGVETQMRHVSISYDIPPTPGNTYQIPRTFPESTLGQSSKLDTIPDIPPPRPPKPHPTHDRSPVETCGVPRTASDTDSSYCIPPPAGMTPSRSNTISTVDLNKLRKDASSQDCYDIPRTFPSDRSSSLEGFHSQYKIKSVLTAGGVSGEELDENYVPMNPNSPPRQHSGSFTEPIQEPNYVPMTPGTFDFSSFGMQVPPPAHMGFRSSPKTPPRRPVPVADCEPPPVDRNLKPDRKVKPAPLDIKPLSEWEELQAPVRSPITRSFARDSSRFPMSPRPDSVHSTTSSSDSHDSEENYVPMNPNLSGEDPNLFASNSLDGGSSPMNKPKGDKQVEYLDLDLDSGKSTPPRKQKSSGSGSSMADERVDYVVVDQQKTLALKSTREAWTDGRQSTESETPTKNVK
B4: Isoform Cas-A of breast cancer anti-estrogen resistance protein 1 (protein, UniProt Q61140-2 1-874)
chain: MKYLNVLAKALYDNVAESPDELSFRKGDIMTVLERDTQGLDGWWLCSLHGRQGIVPGNRLKILVGMYDKKPVGPGPGPPATPPQPQPSLPQGVHAPVPPASQYSPMLPTAYQPQSDNVYLVPTPSKTQQGLYQAPGPNPQFQSPPAKQTSTFSKQTPHHSFPSPATDLYQVPPGPGSPAQDIYQVPPSAGIGHDIYQVPPSLDTRGWEGTKPPAKVVVPTRVGQGYVYEAAQTEQDEYDTPRHLLAPGPQDIYDVPPVRGLLPNQYGQEVYDTPPMAVKGPNGRDPLLDVYDVPPSVEKGLLSSSHHSVYDVPPSVSKDVPDGPLLREETYDVPPAFAKPKPFDPTRHPLILAAPPPDSPAAEDVYDVPPPAPDLYDVPPGLRRPGPGTLYDVPRERVLPPEVADGSVVDDGVYAVPPPAEREAPTDGKRLSASSTGSTRSSQSASSLEVVVPGREPLELEVAVESLARLQQGVSTTVAHLLDLVGSASGPGGWRGTSEPQEPPAQDLKAAVAAVHGAVHELLEFARGAVSNATHTSDRTLHAKLSRQLQKMEDVYQTLVVHGQVLDSGRGSPGFTPEDLDRLVACSRAVPEDAKQLASFLHGNASLLFRRTKAPGPGPEGSSSLHPNPTDKASSIQSRPLPSPPKFTSQDSPDGQYENSEGGWMEDYDYVHLQGKEEFEKTQKELLERGNIMRQGKGQLELQQLKQFERLEQEVSRPIDHDLANWTPAQPLVPGRTGGLGPSDRQLLLFYLEQCEANLTTLTDAVDAFFTAVATNQPPKIFVAHSKFVILSAHKLVFIGDTLSRQAKAADVRSQVTHYSNLLCDLLRGIVATTKAAALQYPSPSAAQDMVDRVKELGHSTQQFRRVLGQLAAA

These are yes or no findings as the source states them, for the method shown. In cells and extracts the contact can be indirect. Here binding means that the protein was enriched with, or labelled near, the bait; the list need not be complete.

The target of the test is Phosphatidylinositol 3-kinase (PI3K) regulatory subunit alpha (mouse (endogenous in Ht22)) (UniProt P26450). Nature of the test: affinity purification with mass spectrometry; endogenous PI3K p85 immunoprecipitated with Ab2 (CST 4257S) and Protein A Sepharose from lysates of Ht22 cells treated 1 h with ACM or CFM and fixed with 0.5% formalin; 0.2% NP-40, 150 mM Tris, 150 mM NaCl; wash with 500 mM NaCl; negative control with blocking peptide; iTRAQ 8plex, MS/MS.
On to “14-3-3 protein epsilon (from UniProt P62259 1-255)”, for which the binding entry is “binds”. “14-3-3 protein zeta/delta (from UniProt P63101 1-245)”: the binding entry is recorded as “binds”.

For the molecule “78-kDa glucose-regulated protein (from UniProt P20029 20-655)”, the binding result was “binds”.

“Isoform 1 of SH3 domain–containing kinase-binding protein 1 (from UniProt Q8R550 1-709)”: the binding result is on record as “binds”. The value for “Isoform 1 of alpha-type platelet-derived growth factor receptor (from UniProt P26618 25-1089)” was “binds”.

Regarding “Phosphatidylinositol 3-kinase regulatory subunit beta (from UniProt O08908 1-722)”, the binding entry was “binds”.

On to B1, for which the binding entry is on record as “binds”.

B2: the binding result is “binds”. The value for B3 was “binds”; that for B4 was “binds”.
